Measurements published in the supplement of paper PMC12823440, “Inhibitors supercharge kinase turnover through native proteolytic circuits” (Nature, 2025).
Where a name gives a salt, the structure may show the parent alone. This is one part of the list. Hit calls seldom repeat between salt and free forms of one compound.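 In K562 cells expressing nanoluciferase-fused kinases, luminescence was recorded at 4 h intervals between 2 and 18 h, normalized as percent of control with DMSO at 100% and a positive control at 0%. A significant (2 sigma) signal drop marks a time point as decreased. The authors' rule for a hit is not shown and takes in more than the number of time points.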

Amino acid sequences for entries named in this document (tags omitted). A change or cut given only in a name is not applied to a line headed by its entry.
UniProt P50613: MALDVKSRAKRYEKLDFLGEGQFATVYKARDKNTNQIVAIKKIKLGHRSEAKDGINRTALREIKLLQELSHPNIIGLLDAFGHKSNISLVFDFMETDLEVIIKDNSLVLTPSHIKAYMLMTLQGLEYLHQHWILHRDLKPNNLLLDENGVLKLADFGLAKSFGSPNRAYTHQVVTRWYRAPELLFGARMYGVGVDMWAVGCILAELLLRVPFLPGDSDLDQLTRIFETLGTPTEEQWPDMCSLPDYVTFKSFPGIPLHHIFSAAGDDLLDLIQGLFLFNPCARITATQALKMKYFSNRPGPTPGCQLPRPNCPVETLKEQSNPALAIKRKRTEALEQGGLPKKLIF
UniProt P50750, whole entry: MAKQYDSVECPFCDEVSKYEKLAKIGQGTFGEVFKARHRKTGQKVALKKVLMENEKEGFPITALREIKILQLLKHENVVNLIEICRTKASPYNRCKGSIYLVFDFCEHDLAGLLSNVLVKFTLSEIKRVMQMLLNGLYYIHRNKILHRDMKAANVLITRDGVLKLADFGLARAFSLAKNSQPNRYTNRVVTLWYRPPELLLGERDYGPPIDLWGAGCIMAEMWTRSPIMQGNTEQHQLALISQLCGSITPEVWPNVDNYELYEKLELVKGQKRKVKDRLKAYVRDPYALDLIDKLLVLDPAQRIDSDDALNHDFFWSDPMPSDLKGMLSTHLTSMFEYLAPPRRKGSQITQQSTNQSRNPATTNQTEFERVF

molecular target: CDK7 (UniProt P50613); experiment: number of time points (of 4; 2 h point missing) at which kinase-Nluc abundance scored as decreased, DMSO-normalised (count); higher = more persistent destabilization; settings: 10 µM; K562; 2-18 h

SMILES	number of time points
Cc1cccc(/C=N/Nc2cc(N3CCOCC3)nc(OCCc3ccccn3)n2)c1 [Apilimod (mesylate)]	1
O=C(O)c1ccc2c(c1)nc(Nc1cccc(Cl)c1)c1ccncc12 [Silmitasertib (sodium salt)]	0
C[C@H](CCC(=O)NCCS(=O)(=O)O)[C@H]1CC[C@H]2[C@@H]3[C@@H](O)C[C@@H]4C[C@H](O)CC[C@]4(C)[C@H]3CC[C@]12C [Tauroursodeoxycholate (dihydrate)]	0
COc1cc2c(cc1OC)-c1c(C)c3ccc(OC)c(OC)c3c[n+]1CC2 [Dehydrocorydaline (chloride)]	0
Clc1ccc(C2(c3ccc(-c4cn[nH]c4)cc3)CCNCC2)cc1	2
CCCC(=O)Nc1ncnc2c1ncn2[C@@H]1O[C@@H]2COP(=O)(O)O[C@H]2[C@H]1OC(=O)CCC [Bucladesine (calcium)]	0
CCS(=O)(=O)N1CCN(c2ccc(Nc3ncc(C(N)=O)c(NC4CC4)n3)cc2)CC1 [Cerdulatinib]	1
CCS(=O)(=O)N1CC(CC#N)(n2cc(-c3ncnc4[nH]ccc34)cn2)C1 [Baricitinib (phosphate)]	0
FC(F)(F)c1ccc(CNc2ccc(Cc3c[nH]c4ncc(Cl)cc34)cn2)cn1 [Pexidartinib (hydrochloride)]	0
O=C(Nc1cnn2ccc(N3CCC[C@@H]3c3cc(F)ccc3F)nc12)N1CC[C@H](O)C1 [Larotrectinib sulfate]	0
C[C@@H](N)c1ccc(C(=O)Nc2ccnc3[nH]ccc23)cc1	0
C[S+]([O-])c1ccc(-c2nc(-c3ccc(F)cc3)c(-c3ccncc3)[nH]2)cc1 (centres undefined)	0
CS(=O)(=O)N1CCN(Cc2cc3nc(-c4cccc5[nH]ncc45)nc(N4CCOCC4)c3s2)CC1 [Pictilisib (dimethanesulfonate)]	0

molecular target: CDK9 (UniProt P50750); experiment: as above; settings: 2.5 µM; K562; 2-18 h

SMILES	number of time points
C=CC(=O)Nc1cc(Nc2nccc(-c3cn(C)c4ccccc34)n2)c(OC)cc1N(C)CCN(C)C [Osimertinib mesylate]	0
Cc1cccc(-c2[nH]c(CNc3ccccc3F)nc2-c2ccc3ncnn3c2)n1 [Vactosertib (Hydrochloride)]	0
CC(C)Oc1ccc(-c2nn([C@@H](C)c3oc4ccc(F)cc4c(=O)c3-c3cccc(F)c3)c3ncnc(N)c23)cc1F [Umbralisib (hydrochloride)]	0
COc1ccc(S(=O)(=O)Nc2ccccc2CN(C)C/C=C/c2ccc(Cl)cc2)cc1 [KN-92 (phosphate)]	0
CN(C)C(=O)c1cc2cnc(Nc3ccc(N4CCNCC4)cn3)nc2n1C1CCCC1 [Ribociclib succinate hydrate]	0
C=CC(=O)Nc1cc2c(Nc3ccc(F)c(Cl)c3)ncnc2cc1C#CC(C)(C)N1CCN(C)CC1	0
Cc1cccc(/C=N/Nc2cc(N3CCOCC3)nc(OCCc3ccccn3)n2)c1 [Apilimod]	0
COc1cc2c(Oc3ccc4[nH]c(C)cc4c3F)ncnc2cc1OCCCN1CCCC1 [Cediranib]	0
Cc1cc(Nc2ncc(Cl)c(Nc3ccccc3S(=O)(=O)C(C)C)n2)c(OC(C)C)cc1C1CCNCC1 [Ceritinib dihydrochloride]	0
Nc1ncnc2c1c(-c1ccc(Oc3ccccc3)cc1)nn2[C@@H]1CCCNC1	0
CNC(=O)c1cc(Oc2ccc(NC(=O)Nc3ccc(Cl)c(C(F)(F)F)c3)c(F)c2)ccn1 [Regorafenib]	0

Single values from the results shown.
Entry for C=CC(=O)Nc1cc2c(Nc3ccc(F)c(Cl)c3)ncnc2cc1C#CC(C)(C)N1CCN(C)CC1 under number of time points: 0
Entry for COc1cc2c(Oc3ccc4[nH]c(C)cc4c3F)ncnc2cc1OCCCN1CCCC1 [Cediranib] under number of time points: 0
